In US4107158A (Choay S.A., priority 1974, dated 1978):

Assay: general procedure: solution-phase peptide synthesis; dicyclohexylcarbodiimide / hydroxybenzotriazole
Conditions: HCl

For “HCl, Leu--Ser--Arg--Leu--Phe--Asp--Asn--Ala”, which step yield (late stage modification step) is on record?
The step yield was 92%.

With “BOC--Leu--Ser(OBzl)--Arg(NO2)--Leu--Phe--OX” as the substance, how does the step yield (late stage modification step) read?
The step yield was 90%.

For “BOC--Leu--Ser (OBzl)--Arg(NO2)--Leu--Phe--OMe”, which step yield (coupling step) is on record?
The step yield was 68%.

Which step yield (late stage modification step) does the source give for “HCl, Ser(OBzl)--Arg(NO2) --Leu--Phe--OMe” here?
Its step yield is 81%.

For “BOC--Ser (OBzl)--Arg(NO2) --leu--Phe--OMe”, which step yield (coupling step) is on record?
The step yield was 92%.
